# Reference: patent EP0380897B1, “Pharmaceutical agents for female sterilization by way of intrauterine administration, and their therapeutical use” (priority 1989, dated 1990)
# For at least one compound, name, drawing or mass did not settle the structure.
# Tested on: trompes humaines
# Test: Clinical follow-up of pregnancies after non-surgical female sterilization with intrauterine quinacrine tablets, alone or with an anti-inflammatory adjuvant
# Format: in vivo, femmes
# Experimental: Ce symptôme est survenu chez 6 % des sujets dans les deux insertions ou seulement dans une seule. • b) un phénomène de fièvre de 38°C à 39,5°C apparaissant le surlendemain du jour d'insertion et durant de 1 à 4 jours, sans relation avec le mal de tête. Les deux symptômes sont corrélés chez seulement quelques sujets. La fièvre est apparue chez 5 % des cas (parfois lors de la première insertion et parfois lors de la seconde). Les autres complications ont été semblables à celles décrites dans l'article publié précédemment J. Zipper et al. Adv. in Contraception 3(1987)255. A la fin de l'année de suivi, le taux de grossesse a été de 3,0 pour 100 femmes et par an.
# Un autre groupe utilisant la quinacrine seule a été constitué, qui a subi deux insertions intra-utérines avec des comprimés à 180 mg. Les insertions ont été séparées par un cycle menstruel - 190 sujets sont entrés dans cette étude. […] Chez un petit nombre de sujets seulement les deux symptômes ont été présents simultanément. La fièvre est apparue dans 3% des cas (pas nécessairement lors des deux insertions). Ce groupe a manifesté un taux de grossesse de 3 pour 100 femmes, et par an à la fin de la première année du suivi. Les deux groupes quinacrine (250 et 180 mg) ont été considéré comme des témoins pour les autres groupes qui ont reçu un anti-inflammatoire, un antipyrétique et des substances anti-prostagrandines. […]
compound,measurement,setting,value
C[C@@H]1C[C@H]2[C@@H]3CCC4=CC(=O)C=C[C@]4(C)[C@@]3(F)[C@@H](O)C[C@]2(C)[C@@]1(O)C(=O)CO [Dexamethasone],grossesse,"4 mg intramuscular at each of two insertions of 250 mg quinacrine tablet, 80 subjects, 950 months of follow-up",Aucune grossesse n'a été détectée
same,grossesse,"4 mg intrauterine (solution in 1 ml) after insertion of quinacrine tablets, 60 subjects, 850 months of follow-up",Aucune grossesse n'a été détectée
